Results on one substance are retold here after PMC11892016.

Chains of the proteins cited; added tags and fusions are not shown. Lines headed by an entry give the natural chain unless they say otherwise; changes in a name come on top.
UniProt P12830: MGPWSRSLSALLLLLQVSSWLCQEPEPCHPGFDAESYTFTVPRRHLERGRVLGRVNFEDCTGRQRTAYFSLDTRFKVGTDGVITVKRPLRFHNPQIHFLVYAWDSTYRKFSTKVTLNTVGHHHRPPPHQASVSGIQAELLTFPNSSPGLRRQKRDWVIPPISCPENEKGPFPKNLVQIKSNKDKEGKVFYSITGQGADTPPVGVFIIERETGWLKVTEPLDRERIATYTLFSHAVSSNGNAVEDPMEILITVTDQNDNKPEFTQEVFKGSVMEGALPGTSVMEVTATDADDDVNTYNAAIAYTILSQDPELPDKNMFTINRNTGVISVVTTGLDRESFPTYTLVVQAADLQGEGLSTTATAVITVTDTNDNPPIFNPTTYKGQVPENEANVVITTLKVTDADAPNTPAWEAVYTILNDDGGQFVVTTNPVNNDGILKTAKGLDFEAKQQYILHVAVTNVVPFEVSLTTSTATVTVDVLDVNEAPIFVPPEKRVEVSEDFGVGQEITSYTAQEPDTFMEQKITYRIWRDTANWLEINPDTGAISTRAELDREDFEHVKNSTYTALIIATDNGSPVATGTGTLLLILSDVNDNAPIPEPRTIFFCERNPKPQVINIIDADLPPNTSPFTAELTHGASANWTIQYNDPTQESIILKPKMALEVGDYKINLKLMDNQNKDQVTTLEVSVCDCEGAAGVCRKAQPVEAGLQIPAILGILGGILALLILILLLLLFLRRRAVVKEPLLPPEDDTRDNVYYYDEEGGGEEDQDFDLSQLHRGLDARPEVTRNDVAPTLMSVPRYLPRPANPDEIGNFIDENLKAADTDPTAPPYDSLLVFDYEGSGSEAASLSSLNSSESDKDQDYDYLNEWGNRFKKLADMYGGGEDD
UniProt O43474: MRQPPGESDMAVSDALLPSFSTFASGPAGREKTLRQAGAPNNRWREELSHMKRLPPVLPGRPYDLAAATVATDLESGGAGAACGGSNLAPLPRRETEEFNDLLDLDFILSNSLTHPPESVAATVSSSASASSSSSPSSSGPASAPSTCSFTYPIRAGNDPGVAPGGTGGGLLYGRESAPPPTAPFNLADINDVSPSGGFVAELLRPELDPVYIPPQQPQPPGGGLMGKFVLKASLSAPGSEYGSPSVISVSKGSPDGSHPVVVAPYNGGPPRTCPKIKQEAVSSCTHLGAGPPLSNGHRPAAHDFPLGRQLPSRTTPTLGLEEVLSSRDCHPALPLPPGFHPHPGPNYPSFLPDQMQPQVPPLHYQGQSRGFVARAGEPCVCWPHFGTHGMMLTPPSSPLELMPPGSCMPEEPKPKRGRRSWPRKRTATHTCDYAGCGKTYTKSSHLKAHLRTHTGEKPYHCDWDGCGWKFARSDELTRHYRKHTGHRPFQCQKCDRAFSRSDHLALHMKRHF

The target of this assay is GST‐E‐cadherin (human) (UniProt P12830). Description: pull-down; GST-E-cadherin held on GST resin, washed; purified KLF4-His added; eluate analysed by SDS-PAGE and Western blot with anti-His and anti-GST; both purified.

Results are given in words; binding and its absence hold for the method and conditions named. A result given as binding can be weak or reduced; the word gives no strength.

Take KLF4‐His (from UniProt O43474 1-513): the binding result is on record as “binds”.
